From PubChem BioAssay AID2685 (National Center for Advancing Translational Sciences (NCATS), 2010)
This is one part of the list. These are further read-outs of the screen, such as a control signal, another cell line or another target. No call is given for them. Most of these compounds were active or inconclusive in the main read-out, so they are no random draw. The note in brackets gives the kind of curve behind each potency; many fits are weak.

Assay: qHTS Assay for Lipid Storage Modulators in Drosophila S3 Cells;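 for cell number change: cells counted by Cell Tracker Red CMTPX staining in the red channel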
Conditions: BODIPY lipid droplet fluorescence, 18-24 h; for cell number change: measured here: cell count max response, cells fed with added oleic acid
Method in brief: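 Drosophila S3 cells got compounds at several concentrations plus oleic acid (400 uM solution). Laser-scanning cytometry with 488 nm excitation read lipid droplets at 500-530 nm and cells at 575-640 nm. Percent activity was relative to 20 uM Triacsin C.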

[1] = measured here: lipid fluorescence (Fed channel) AC50, cells fed with added oleic acid
[2] = measured here: cell number channel AC50, cells fed with added oleic acid

| SMILES | cell number change [%] | AC50 [1] | AC50 [2] |
| --- | --- | --- | --- |
| CCN(CC)C(=O)c1c[nH]c2ccc(S(=O)(=O)Nc3cc(C)cc(C)c3)cc2c1=O | 4.26 | 6.51 µM [falling, single point] | – |
| CCOc1ccccc1NC(=O)CCC(=O)Nc1ccc2nc(N3CCN(C)CC3)cc(C)c2c1 | -45.2 | 9.2 µM [falling, partial curve] | 10.3 µM [falling, partial curve] |
| CCOC(=O)C1CCCN(C/C=C/c2ccccc2[N+](=O)[O-])C1 (centres undefined) | -15.6 | 6.51 µM [falling, full curve, poor fit] | – |
| CN(CCC#N)C(=O)COC(=O)c1cccnc1Nc1ccccc1F | 59 | – | 29.1 µM [rising, single point] |
| CCN(C(=O)CN1CCN(S(=O)(=O)c2cc(Cl)ccc2Cl)CC1)c1c(N)n(Cc2ccccc2)c(=O)[nH]c1=O | -3.27 | 0.92 µM [falling, full curve] | – |
| CC(C)(C)S(=O)(=O)/C(C#N)=N/Nc1ccc(S(N)(=O)=O)cc1 | -7.19 | 0.58 µM [rising, partial curve, poor fit] | 0.731 µM [rising, single point] |
| CCN1C(=O)c2ccccc2S(=O)(=O)c2ccc(C(=O)NCCOC)cc21 | -16.7 | – | – |
| CCOC(=O)N1CCN(CC(O)COCc2ccccc2)CC1 (centres undefined) | -0.99 | 0.651 µM [falling, full curve, poor fit] | – |
| O=C(COc1ccc(Br)cc1Br)NC(=S)Nc1cccc(CO)c1 | 2.82 | 0.00461 µM [rising, full curve, poor fit] | – |
| CCN(C(=O)COC(=O)c1nc(Cl)ccc1Cl)C1CCS(=O)(=O)C1 (centres undefined) | -10 | – | – |
| COc1cccc(C2NC(=O)CCC2[N+](=O)[O-])c1 (centres undefined) | 82 | 6.51 µM [rising, single point] | 9.2 µM [rising, partial curve] |
| Cc1cc(C(=O)N/N=C/c2c(C)nn(-c3ccccc3)c2C)c(C)o1 | 15 | 0.291 µM [rising, full curve, poor fit] | – |
| CCn1c(SCC(=O)c2ccc3ccccc3c2)nnc1-c1ccco1 | 40.4 | – | 23.1 µM [rising, single point] |
| CCCn1c(SCC(=O)Nc2nc(C)c(C(=O)OC)s2)nnc1C(C)C | -2.58 | 1.3 µM [rising, partial curve] | – |
| C#Cc1ccc(CN2CCCC(C(=O)Nc3ccccc3Oc3cccnc3)C2)cc1 (centres undefined) | 42.9 | – | 29.1 µM [rising, single point] |
| Cc1ccc(NS(=O)(=O)c2cc3c(cc2C)NC(=O)CO3)cc1 | -23.1 | – | – |
| CCc1cccc(C)c1NC(=O)CN1CCN(S(=O)(=O)c2ccc(C(C)(C)C)cc2)CC1 | – | 0.13 µM [falling, full curve, poor fit] | – |
| Cc1ccnc(NC(=O)CCC(=O)N(CC(=O)NCc2ccc(F)cc2)Cc2ccco2)c1 | 5.22 | – | – |
| O=C(COC(=O)CNC(=O)c1ccc(Br)cc1)Nc1nnc(-c2ccccc2)o1 | 20.5 | – | – |
| Cc1ccc(S(=O)(=O)Nc2cc(Cl)ccc2-n2cncn2)cc1 | 32.3 | 16.4 µM [rising, partial curve] | 29.1 µM [rising, single point] |
| COc1ccc(NC(=O)C2=CC(c3ccco3)=NS(=O)(=O)N2C)cc1OC | 19 | 4.11 µM [rising, full curve, poor fit] | – |

| SMILES | cell number change [%] | AC50 [1] | AC50 [2] |
| --- | --- | --- | --- |
| CCN(CC)S(=O)(=O)c1ccc(C)c(NC(=S)N2CCN(Cc3ccc4c(c3)OCO4)CC2)c1 | -1.59 | 0.0517 µM [rising, full curve, poor fit] | – |
| CCC(C)[C@H]1CNCCN1CCc1cccc(F)c1 (some centres undefined) | 10.6 | 0.231 µM [falling, full curve, poor fit] | – |
| CC1(C)Cc2c(c(N3CCCC3)nc3sc4c(N5CCNCC5)ncnc4c23)CO1 | 25.7 | – | 0.58 µM [rising, full curve, poor fit] |
| COc1ccc(OCC(=O)OCC(=O)NCC2CCCCC2)cc1 | 8.78 | 23.1 µM [rising, single point] | – |
| CCc1sc(NC(=O)CCC(=O)O)nc1-c1cc2ccccc2oc1=O | -16.8 | 0.00517 µM [falling, full curve, poor fit] | – |
| Cc1ccc(N(CC(=O)NC2CCC(C)CC2)S(=O)(=O)c2cccnc2)cc1 (centres undefined) | 8.61 | – | – |
| COc1cc(OC)c(/C=N/NC(=O)c2ccncc2)cc1Br | 1.9 | 20.6 µM [rising, single point] | – |
| COc1ccc(-n2nc(C(=O)NCC(=O)N(C)Cc3ccccc3)c3ccccc3c2=O)cc1OC | -4.05 | 29.1 µM [falling, partial curve, poor fit] | – |
| CCNC(=S)Nc1ccc(S(=O)(=O)Nc2cc(C)nc(C)n2)cc1 | -17.4 | 4.11 µM [falling, full curve] | – |
| OC(CNC1CCCCC1)CNC1CCCCC1 | 31.4 | – | 29.1 µM [rising, single point] |
| N#Cc1nc(-c2ccccc2)oc1NCC1CCCO1 (centres undefined) | -60.4 | 29.1 µM [falling, single point] | 29.1 µM [falling, single point] |
| CC(C)CCn1nnnc1C(c1ccccc1)N1CCN(C)CC1 (centres undefined) | -30.8 | 29.1 µM [rising, single point] | 0.0146 µM [falling, full curve] |
| CCS(=O)(=O)N1Cc2ccccc2CC1C(=O)NCc1cccc(OC)c1 (centres undefined) | 17.3 | – | – |
| Brc1c(CSc2nncn2-c2ccccc2)nc2ncccn12 | 31.5 | – | 6.51 µM [rising, full curve, poor fit] |
| CC(Sc1nc(-c2ccccc2)cc(C(F)(F)F)n1)C(=O)N1CCC(C(N)=O)CC1 (centres undefined) | -22.7 | 29.1 µM [falling, single point] | – |
| COc1ccc2[nH]c(C(=O)NCCCn3ccnc3)cc2c1 | 14.6 | 0.206 µM [rising, full curve, poor fit] | – |
| O=C(Nc1ccc(Cl)cn1)C1CC1 | -2.05 | – | – |
| COc1ccc(CC2(C)OC(c3ccccc3)=NN2C(C)=O)cc1 (centres undefined) | -21.9 | 2.06 µM [rising, partial curve, poor fit] | – |
| Cc1cc(C)c2c(NC(=O)CCl)nn(C)c2n1 | – | 6.51 µM [rising, single point] | – |
| O=[N+]([O-])c1cc(-c2nc(-c3ccncc3)no2)cc([N+](=O)[O-])c1 | -16.2 | – | – |
| O=C(Cc1ccccc1)NN1C(=O)/C(=C/c2ccccc2C(=O)O)SC1=S | -7.31 | 6.51 µM [falling, partial curve] | – |

Single entries from above.
`CCC(C)[C@H]1CNCCN1CCc1cccc(F)c1` (some centres undefined) | AC50 [1]: 0.231 µM [falling, full curve, poor fit]
`Cc1cc(C)c2c(NC(=O)CCl)nn(C)c2n1` | AC50 [1]: 6.51 µM [rising, single point]
`COc1ccc(OCC(=O)OCC(=O)NCC2CCCCC2)cc1` | AC50 [1]: 23.1 µM [rising, single point]

Whole records, quoted from the list. Order of values: cell number change [%]	AC50 [1]	AC50 [2]
COc1ccc(OCC(=O)OCC(=O)NCC2CCCCC2)cc1 as listed: 8.78	23.1 µM [rising, single point]	–
CCN1C(=O)c2ccccc2S(=O)(=O)c2ccc(C(=O)NCCOC)cc21 as listed: -16.7	–	–

(further entries)

| SMILES | cell number change [%] | AC50 [1] | AC50 [2] |
| --- | --- | --- | --- |
| CCOc1ccc(CCNC(=O)COC(=O)c2cccc(OC)c2O)cc1OCC | -32.3 | 29.1 µM [falling, single point] | – |
| CN(Cc1cn(C)nc1-c1ccccc1F)C1CCOC1 (centres undefined) | 12.8 | 25.9 µM [rising, single point] | – |
| CCOC(=O)c1ccc(S(=O)(=O)N2CCN(CCC#N)CC2)cc1 | 7.69 | 6.51 µM [falling, single point] | – |
| CCCNC(=O)c1ccccc1NC(=O)CSCc1ccc(OC)cc1 | – | 0.731 µM [rising, single point] | – |
| CCOC(=O)C1=C(C)N=c2s/c(=C\c3ccc(O)c([N+](=O)[O-])c3)c(=O)n2C1c1ccccc1OC (centres undefined) | -9.59 | 32.6 µM [falling, single point] | – |
| Cc1ccc(Cl)cc1N1CCN(Cc2nc3c(c(=O)[nH]c(=O)n3C)n2CCc2ccccc2)CC1 | 20.8 | – | – |
| Cc1ccc(C2=N/C(=C/N3CCOCC3)C(=O)O2)cc1 | – | 29.1 µM [rising, single point] | – |
| COc1ccc(C2CCN(Cc3cccnc3)CC2O)cc1 (centres undefined) | 21.5 | 10.3 µM [rising, partial curve, poor fit] | – |
| CN(c1ccccc1C(=O)Nc1ccc(CC#N)cc1)S(=O)(=O)c1ccccc1 | -23.6 | 29.1 µM [falling, single point] | – |
| Cc1cccn2c(=O)nc(SCC(=O)N3CCCC3)nc12 | – | 2.06 µM [rising, partial curve] | 1.84 µM [rising, partial curve] |
| Cc1nc2ccccc2n1CC(=O)OCC(=O)NCCc1ccccc1 | -30.6 | 8.2 µM [rising, partial curve] | 0.82 µM [falling, full curve, poor fit] |
| O=C(CCn1c(=O)oc2ccccc21)N1CCCCCC1 | 18.6 | 29.1 µM [rising, single point] | – |
| CC(C)N1CCc2c(sc(NC(=O)c3ccco3)c2C(N)=O)C1 | 15.1 | – | 0.651 µM [rising, single point] |
| CC(=O)N1CCN(c2nnnn2-c2ccccc2)CC1 | -21.1 | 20.6 µM [falling, partial curve] | – |
| COC(=O)c1cc(NC(=O)c2cc(C(C)(C)C)nn2Cc2ccc(F)cc2)ccc1N1CCOCC1 | -51.6 | 32.6 µM [falling, single point] | 10.3 µM [falling, single point] |
| O=C(c1ccco1)N1CCCC(c2nc3c(nnn3Cc3c(Cl)cccc3Cl)c(=O)[nH]2)C1 (centres undefined) | 0.806 | 25.9 µM [falling, single point] | – |
| O=C(Cc1cccs1)Nc1nnc(SCC(=O)NC2CCCCC2)s1 | 0.477 | – | – |
| CC(=O)c1sc2nc(-c3ccccc3)cc(C)c2c1N | -23.3 | 29.1 µM [falling, single point] | – |
| NC(=O)c1ccc(-n2nnnc2Oc2ccccc2C(=O)N2CCOCC2)cc1 | – | – | 6.51 µM [falling, single point] |
